Laboratory results published in doi:10.1101/2022.11.09.515888.
Like-named read-outs stand apart in the source and are kept apart here. No constants are given. Whether binding was seen depends on the method and setting. In cells and extracts the contact can be indirect. Some binding calls cover weakened binding; strength is not graded here.

Amino acid sequences for entries named in this document (tags omitted).
UniProt O09106: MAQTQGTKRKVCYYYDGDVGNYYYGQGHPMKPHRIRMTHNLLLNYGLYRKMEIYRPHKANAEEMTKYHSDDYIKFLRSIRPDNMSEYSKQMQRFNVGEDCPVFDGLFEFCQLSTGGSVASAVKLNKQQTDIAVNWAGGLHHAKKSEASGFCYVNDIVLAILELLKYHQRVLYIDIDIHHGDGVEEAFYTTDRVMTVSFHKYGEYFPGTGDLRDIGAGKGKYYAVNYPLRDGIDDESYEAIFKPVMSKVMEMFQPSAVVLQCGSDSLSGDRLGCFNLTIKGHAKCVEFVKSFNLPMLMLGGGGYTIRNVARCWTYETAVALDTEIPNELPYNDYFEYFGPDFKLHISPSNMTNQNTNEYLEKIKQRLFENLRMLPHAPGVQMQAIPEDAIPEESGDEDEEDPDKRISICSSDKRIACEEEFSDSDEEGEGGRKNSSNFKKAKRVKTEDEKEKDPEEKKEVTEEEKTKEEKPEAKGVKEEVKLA
UniProt Q6NZM9: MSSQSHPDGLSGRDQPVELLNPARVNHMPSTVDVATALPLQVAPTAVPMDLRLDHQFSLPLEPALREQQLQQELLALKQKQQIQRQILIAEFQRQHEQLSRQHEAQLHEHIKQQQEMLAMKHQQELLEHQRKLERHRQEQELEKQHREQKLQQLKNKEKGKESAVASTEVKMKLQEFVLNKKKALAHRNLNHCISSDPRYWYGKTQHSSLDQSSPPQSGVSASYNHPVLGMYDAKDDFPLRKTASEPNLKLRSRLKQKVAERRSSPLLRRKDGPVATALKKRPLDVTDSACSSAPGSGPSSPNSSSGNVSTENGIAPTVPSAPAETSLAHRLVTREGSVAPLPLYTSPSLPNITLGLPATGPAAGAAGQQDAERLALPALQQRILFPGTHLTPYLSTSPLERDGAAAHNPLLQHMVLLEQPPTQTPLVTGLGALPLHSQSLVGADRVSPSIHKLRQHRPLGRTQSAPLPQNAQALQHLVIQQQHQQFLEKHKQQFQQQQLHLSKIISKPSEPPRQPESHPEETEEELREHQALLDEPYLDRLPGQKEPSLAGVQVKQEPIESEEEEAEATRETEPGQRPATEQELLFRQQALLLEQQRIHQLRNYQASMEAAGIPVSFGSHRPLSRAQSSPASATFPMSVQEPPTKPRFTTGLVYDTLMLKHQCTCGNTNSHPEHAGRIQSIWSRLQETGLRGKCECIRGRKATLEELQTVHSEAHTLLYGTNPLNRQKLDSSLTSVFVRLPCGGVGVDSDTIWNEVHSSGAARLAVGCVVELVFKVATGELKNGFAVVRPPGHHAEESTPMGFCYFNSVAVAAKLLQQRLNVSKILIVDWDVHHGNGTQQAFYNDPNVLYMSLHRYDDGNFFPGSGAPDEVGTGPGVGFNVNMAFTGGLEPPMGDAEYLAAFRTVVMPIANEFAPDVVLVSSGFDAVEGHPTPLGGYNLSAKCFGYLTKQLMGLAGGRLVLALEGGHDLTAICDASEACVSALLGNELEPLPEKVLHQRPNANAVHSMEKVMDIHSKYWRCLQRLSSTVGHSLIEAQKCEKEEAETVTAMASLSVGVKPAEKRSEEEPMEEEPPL
UniProt Q61188: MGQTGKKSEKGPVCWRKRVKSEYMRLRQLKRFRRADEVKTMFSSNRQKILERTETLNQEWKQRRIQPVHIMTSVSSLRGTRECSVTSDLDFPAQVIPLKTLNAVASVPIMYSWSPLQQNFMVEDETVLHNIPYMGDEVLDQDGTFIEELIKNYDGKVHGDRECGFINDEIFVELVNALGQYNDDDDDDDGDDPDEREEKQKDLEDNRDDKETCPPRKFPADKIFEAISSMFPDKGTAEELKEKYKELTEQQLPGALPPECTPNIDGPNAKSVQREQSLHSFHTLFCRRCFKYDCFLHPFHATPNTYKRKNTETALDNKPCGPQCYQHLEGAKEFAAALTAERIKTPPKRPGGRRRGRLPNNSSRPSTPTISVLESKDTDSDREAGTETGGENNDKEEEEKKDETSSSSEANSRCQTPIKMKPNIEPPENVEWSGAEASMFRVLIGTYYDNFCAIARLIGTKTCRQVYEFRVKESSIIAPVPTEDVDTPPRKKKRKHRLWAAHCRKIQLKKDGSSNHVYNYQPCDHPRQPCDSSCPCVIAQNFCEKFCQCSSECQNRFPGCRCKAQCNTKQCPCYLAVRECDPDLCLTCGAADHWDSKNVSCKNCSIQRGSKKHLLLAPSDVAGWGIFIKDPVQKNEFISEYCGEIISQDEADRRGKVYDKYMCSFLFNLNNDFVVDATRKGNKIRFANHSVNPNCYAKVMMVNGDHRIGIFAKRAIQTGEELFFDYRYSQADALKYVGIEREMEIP

T1: retinoic acid receptor alpha (RARα) (mouse (endogenous in mouse SMCs)) (UniProt P11416)
T1 sequence: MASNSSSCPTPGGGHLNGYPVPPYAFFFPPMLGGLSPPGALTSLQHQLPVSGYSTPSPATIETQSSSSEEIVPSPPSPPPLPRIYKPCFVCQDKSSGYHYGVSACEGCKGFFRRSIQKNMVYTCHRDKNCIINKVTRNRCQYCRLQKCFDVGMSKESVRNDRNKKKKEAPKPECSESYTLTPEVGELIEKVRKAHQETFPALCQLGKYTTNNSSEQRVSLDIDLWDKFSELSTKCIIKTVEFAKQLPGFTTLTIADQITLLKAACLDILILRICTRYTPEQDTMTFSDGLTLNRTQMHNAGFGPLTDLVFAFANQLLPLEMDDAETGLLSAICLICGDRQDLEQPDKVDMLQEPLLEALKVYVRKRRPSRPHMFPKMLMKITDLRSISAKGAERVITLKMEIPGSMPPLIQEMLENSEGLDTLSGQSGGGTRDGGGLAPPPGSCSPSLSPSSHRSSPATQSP


Experiments:
[1] = molecular target: T1, retinoic acid receptor alpha (RARα) (mouse (endogenous in mouse SMCs)); experiment: co-IP
[2] = molecular target: T1, retinoic acid receptor alpha (RARα) (mouse (endogenous in mouse SMCs)); experiment: co-IP; remark: listed apart in the source

Row | Molecule | binding [1] | binding [2]
1 | HDAC1 (from UniProt O09106 1-482) | binds | –
2 | HDAC4 (from UniProt Q6NZM9 1-1076) | no binding | –
3 | EZH2 (from UniProt Q61188 1-746) | binds | –
4 | HDAC6 (protein, UniProt Q9Z2V5 1-1149) MTSTGQDSSTRQRKSRHNPQSPLQESSATLKRGGKKCAVPHSSPNLAEVKKKGKMKKLSQPAEEDLVVGLQGLDLNPETRVPVGTGLVFDEQLNDFHCLWDDSFPESPERLHAIREQLILEGLLGRCVSFQARFAEKEELMLVHSLEYIDLMETTQYMNEGELRVLAETYDSVYLHPNSYSCACLATGSVLRLVDALMGAEIRNGMAVIRPPGHHAQHNLMDGYCMFNHLAVAARYAQKKHRIQRVLIVDWDVHHGQGTQFIFDQDPSVLYFSIHRYEHGRFWPHLKASNWSTIGFGQGQGYTINVPWNQTGMRDADYIAAFLHILLPVASEFQPQLVLVAAGFDALHGDPKGEMAATPAGFAHLTHLLMGLAGGKLILSLEGGYNLRALAKGVSASLHTLLGDPCPMLESCVVPCASAQTSIYCTLEALEPFWEVLERSVETQEEDEVEEAVLEEEEEEGGWEATALPMDTWPLLQNRTGLVYDEKMMSHCNLWDNHHPETPQRILRIMCHLEEVGLAARCLILPARPALDSELLTCHSAEYVEHLRTTEKMKTRDLHREGANFDSIYICPSTFACAKLATGAACRLVEAVLSGEVLNGIAVVRPPGHHAEPNAACGFCFFNSVAVAARHAQIIAGRALRILIVDWDVHHGNGTQHIFEDDPSVLYVSLHRYDRGTFFPMGDEGASSQVGRDAGIGFTVNVPWNGPRMGDADYLAAWHRLVLPIAYEFNPELVLISAGFDAAQGDPLGGCQVTPEGYAHLTHLLMGLAGGRIILILEGGYNLASISESMAACTHSLLGDPPPQLTLLRPPQSGALVSISEVIQVHRKYWRSLRLMKMEDKEECSSSRLVIKKLPPTASPVSAKEMTTPKGKVPEESVRKTIAALPGKESTLGQAKSKMAKAVLAQGQSSEQAAKGTTLDLATSKETVGGATTDLWASAAAPENFPNQTTSVEALGETEPTPPASHTNKQTTGASPLQGVTAQQSLQLGVLSTLELSREAEEAHDSEEGLLGEAAGGQDMNSLMLTQGFGDFNTQDVFYAVTPLSWCPHLMAVCPIPAAGLDVSQPCKTCGTVQENWVCLTCYQVYCSRYVNAHMVCHHEASEHPLVLSCVDLSTWCYVCQAYVHHEDLQDVKNAAHQNKFGEDMPHSH | – | binds
